This assay has as its target VEGF (UniProt P15692). Briefly: FACS, construct displayed on E. coli (CPX), labeled VEGF; MMP-2 treated against untreated. Background: In flow cytometry, cells or beads pass a laser one at a time.

Amino acid sequences for entries named in this document (tags omitted). A change or cut given only in a name is not applied to a line headed by its entry. Chains listed by the source or under a name are the forms on record and can include a tag or linker.
VEGF (P15692, form named): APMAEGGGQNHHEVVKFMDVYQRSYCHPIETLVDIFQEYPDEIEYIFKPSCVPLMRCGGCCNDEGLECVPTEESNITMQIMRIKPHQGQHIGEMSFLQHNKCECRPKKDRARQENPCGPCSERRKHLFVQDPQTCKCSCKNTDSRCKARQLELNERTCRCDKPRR

These are yes or no findings as the source states them, for the method shown. Some entries that bind do so weakly or less than the wild type.

B1: GS control (designed binder, not shown: large carriers; small tags and cut ends)
chain: GQSGQGGSGGSGGSGGSGGSPLGLAGGGSGNFGYGKWEWDYGKWLEKVGGG
Take B1: the binding entry is “binds”.

(Values after patent publication US20090304719A1.)
